According to the supplement of paper PMC3334620:
In all, about 33,000 sequences were measured (“E-score (-0.5 to 0.5)”: median about -0.0034, highest 2% from about 0.25 on). The list shows a part of the results.

molecular target: T1, Yap3 (UniProt P38749); assay: PBM E-score (8-mer binding enrichment) (E-score (-0.5 to 0.5)); higher = stronger / more preferred TF binding; conditions: protein concentration: 100 nM; construct: GST-full length
T1 sequence: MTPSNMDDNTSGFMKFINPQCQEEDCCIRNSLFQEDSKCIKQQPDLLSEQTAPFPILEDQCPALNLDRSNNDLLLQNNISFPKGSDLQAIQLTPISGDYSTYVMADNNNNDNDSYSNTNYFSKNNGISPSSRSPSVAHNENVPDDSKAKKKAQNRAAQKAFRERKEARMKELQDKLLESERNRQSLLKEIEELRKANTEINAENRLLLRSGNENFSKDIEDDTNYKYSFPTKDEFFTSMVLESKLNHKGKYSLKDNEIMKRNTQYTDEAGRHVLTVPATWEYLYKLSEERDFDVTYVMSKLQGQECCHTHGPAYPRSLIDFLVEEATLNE
Outline: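 For each ungapped eight-base word taken together with its reverse complement, the Universal PBM Analysis Suite assigned an E-score. Binding data came from GST-tagged yeast transcription factors, applied at about 100-200 nM, on universal all-10-mer Agilent arrays made double-stranded by primer extension. Fluorescent anti-GST marked bound protein, and scans were normalised with masliner.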

Sequence	PBM E-score
AGCGCACC	-0.133
GTCGACCA	-0.0665
GATTCACC	0.00196
ACGGTCGC	-0.175
AGGCTACT	-0.166
GTCATGAA	0.00827
AATGTGAT	0.232
CTCGTCCA	0.0412
AAGATCGA	0.066
ATGTCGAC	0.185
GCCTCGCC	-0.246
AAATGAGG	-0.0381
GACCACAC	-0.0615
GACCCCTC	-0.213
GGCCCTAC	-0.264
GCGCGCGC	0.29
CGGAAGTC	0.0315
AGCTTTGA	-0.0291
AAAGAGTA	0.0272
ACCCGGCC	-0.347
CTTTGTGA	-0.053
CCTTCTCA	0.085
AGGCAACG	-0.012
GATTGGTA	0.305
CCTGAAAG	-0.0346

Sequence	PBM E-score
ATAAAGTC	0.133
AGGTTATA	0.0014
CCTCGAAG	-0.00479
ATACTGAT	0.169
GCTGAACA	0.0795
GGCTTCAA	-0.196
CCGTAGTA	-0.0364
AACCCGAT	0.149
CAGCCGGC	-0.186
CAGGGTAC	-0.163
TACGGTAA	0.212
CAGCGCTA	0.00813
CCTGACCC	-0.198
CTAACCAA	0.046
AGAAGGCT	-0.169
GGGAGTGA	-0.0816
CTCGCGGC	-0.182
AGCCGCCC	-0.112
CTATACTC	0.0165
AGTGAGTG	-0.0641
CGATTCCC	0.177
AATTCTTG	0.101
AGTCGCAC	-0.233
ACAAAATA	0.175
ACTCTAAC	0.0588

Sequence	PBM E-score
GATGAATC	0.088
CGTGTAGC	-0.103
CCGAACAG	-0.0176
AACGCCTG	-0.0935
CACTTACG	0.123
CCATAAAA	0.0885
ACAATATG	0.238
ACATCACC	-0.0572
TCACAGAA	0.0283
GACAGCCA	-0.00244
AATATATT	0.331
CTTGAACC	0.0903
CGCCCAAA	-0.0448
CAACCCGC	-0.0462
AACGACGC	-0.0529
ATCCCTTC	-0.0465
ACTCTCCA	-0.0772
GCCAGTGA	-0.205
CGCTGAAC	-0.0734
CGGGACGC	-0.24
AAGAGCTC	-0.251
ACAACTGT	-0.0422
CTAGCATC	-0.105
CACCTAGG	-0.0458
AAGTGCAG	-0.235

Sequence	PBM E-score
ACCCGATC	0.026
ATCCCAAT	0.0688
AGAGCGCA	-0.143
AACTCGAC	0.127
AGTGCCTA	-0.171
ACTGCGAG	-0.0673
AATTTGGG	0.194
AGTCAATC	0.00332
AAGAGGGT	-0.251
AGGAACGC	-0.0473
GAGCATTA	0.0912
CTTTCGGA	-0.0976
AGGTCTCC	-0.0939
CAATAGAA	0.0522
ACTACACC	-0.0367
CTCTCTAA	-0.149
CTGAGCCC	-0.354
ATCTCCTA	-0.0776
GTGGCAAA	-0.145
ATGGGGGG	-0.351
ACGTGCAC	0.0895
GCCTGAGC	-0.197
ACTACGGG	-0.184
AGCGAGCG	0.0566
GATATTAA	0.212

Sequence	PBM E-score
GATCTTAC	0.0656
GACACGTC	-0.209
CTTCAAGA	0.036
AATACACG	0.0582
AGCCCTCC	-0.235
CGAGGCGA	0.0455
CGACATGC	0.0571
AGTTACGA	0.213
AGGCGGAC	-0.0486
AACTTTAG	0.0879
CTCTCTTC	-0.181
AAGCTCAA	-0.178
GCTGAAGC	-0.139
CTTGCCTA	-0.108
AGACTGAC	-0.124
ACTGGGCT	-0.239
GTTAAGGA	-0.0357
AGTAATTG	0.164
AGTTCGTC	0.0313
CACCGGCA	-0.0569
CTGCGTCA	-0.056
CGCGTCCC	-0.133
ATTGCCTA	-0.168
ATGTATAG	0.168
ACGCTCCG	-0.22

54 entries from above in a different format.
Sequence,PBM E-score
AGCGCACC,-0.133
GTCGACCA,-0.0665
GATTCACC,0.00196
ACGGTCGC,-0.175
AGGCTACT,-0.166
GTCATGAA,0.00827
AATGTGAT,0.232
CTCGTCCA,0.0412
AAGATCGA,0.066
ATGTCGAC,0.185
GCCTCGCC,-0.246
AAATGAGG,-0.0381
GACCACAC,-0.0615
GACCCCTC,-0.213
GGCCCTAC,-0.264
GCGCGCGC,0.29
CGGAAGTC,0.0315
AGCTTTGA,-0.0291
AAAGAGTA,0.0272
ACCCGGCC,-0.347
CTTTGTGA,-0.053
CCTTCTCA,0.085
AGGCAACG,-0.012
GATTGGTA,0.305
CCTGAAAG,-0.0346
ATAAAGTC,0.133
AGGTTATA,0.0014
CCTCGAAG,-0.00479
ATACTGAT,0.169
GCTGAACA,0.0795
GGCTTCAA,-0.196
CCGTAGTA,-0.0364
AACCCGAT,0.149
CAGCCGGC,-0.186
CAGGGTAC,-0.163
TACGGTAA,0.212
CAGCGCTA,0.00813
CCTGACCC,-0.198
CTAACCAA,0.046
AGAAGGCT,-0.169
GGGAGTGA,-0.0816
CTCGCGGC,-0.182
AGCCGCCC,-0.112
CTATACTC,0.0165
AGTGAGTG,-0.0641
CGATTCCC,0.177
AATTCTTG,0.101
AGTCGCAC,-0.233
ACAAAATA,0.175
ACTCTAAC,0.0588
GATGAATC,0.088
CGTGTAGC,-0.103
CCGAACAG,-0.0176
AACGCCTG,-0.0935

Remaining list, next part

Sequence	PBM E-score
GATCTTAA	0.116
AGGCTTCG	-0.0931
GCACGCGC	-0.0469
ACGAGATC	-0.00149
CAGCTGCG	-0.159
ACGACACC	0.0139
CATGCAAA	0.121
CATCTCAG	0.214
GACATTTA	0.0833
CATCATCA	-0.0145
AGCACTCA	-0.0397
CGTACACG	-0.0424
AAGGGCGG	-0.178
ACCGTAGA	0.0691
GTACTTCA	0.287
AACCACCG	-0.0601
ACGCGGAA	0.0747
CTATCGAA	0.134
AGATGCGG	0.00762
GGCCAAAA	-0.017
CACCATAG	-0.194
CATAACAC	0.141
CCAACCTA	-0.0656
ATTGTCCC	-0.0533
GATAACCC	-0.116

Sequence	PBM E-score
CGACGAAA	0.164
AATTCCAT	0.111
CGGTCTGC	-0.152
GACTTGGA	-0.023
CCGGTATC	-0.113
AACGCAGG	-0.0496
AAAGAAGA	0.0167
ACGGTGGC	-0.0704
CGTTGGAC	-0.13
CAAATGGC	-0.0048
ACGATGAA	0.0863
ACCCGGTG	-0.243
ACAACCCG	-0.0235
GGCCGCTA	-0.191
ACATTTGC	0.0539
ACAGAATG	0.0204
AAAACGCA	0.0949
ACCTGATG	-0.0717
AGCAAGTA	0.146
ATAGTATC	0.194
AATGGACC	0.0727
CTGCTATC	0.0643
